From publication doi:10.1101/2024.09.06.611391
These are yes or no findings as the source states them, for the method shown. In cells and extracts the contact can be indirect. Here binding means that the protein was enriched with, or labelled near, the bait; the list need not be complete.

The chains behind the UniProt entries cited, without tags or fusion partners. Residues count along the entry.
UniProt Q64339, residues 1-155: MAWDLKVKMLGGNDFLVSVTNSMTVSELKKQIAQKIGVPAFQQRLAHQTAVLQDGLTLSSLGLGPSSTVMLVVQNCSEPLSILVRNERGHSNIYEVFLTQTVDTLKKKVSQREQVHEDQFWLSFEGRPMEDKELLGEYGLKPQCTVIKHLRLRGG
UniProt Q9JMA1: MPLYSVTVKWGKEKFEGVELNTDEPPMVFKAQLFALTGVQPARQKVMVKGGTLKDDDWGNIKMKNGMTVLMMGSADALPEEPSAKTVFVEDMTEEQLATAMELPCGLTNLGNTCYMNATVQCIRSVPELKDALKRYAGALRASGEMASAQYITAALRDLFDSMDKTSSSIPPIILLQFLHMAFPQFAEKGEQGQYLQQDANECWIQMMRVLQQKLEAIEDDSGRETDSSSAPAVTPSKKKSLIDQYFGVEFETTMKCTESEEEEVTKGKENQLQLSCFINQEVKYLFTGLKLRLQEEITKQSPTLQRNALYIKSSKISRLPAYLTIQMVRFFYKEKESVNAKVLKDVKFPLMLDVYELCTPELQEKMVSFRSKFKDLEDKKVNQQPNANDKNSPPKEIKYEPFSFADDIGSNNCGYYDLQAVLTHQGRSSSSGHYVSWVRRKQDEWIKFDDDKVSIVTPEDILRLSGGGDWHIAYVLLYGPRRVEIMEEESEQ
UniProt P56399: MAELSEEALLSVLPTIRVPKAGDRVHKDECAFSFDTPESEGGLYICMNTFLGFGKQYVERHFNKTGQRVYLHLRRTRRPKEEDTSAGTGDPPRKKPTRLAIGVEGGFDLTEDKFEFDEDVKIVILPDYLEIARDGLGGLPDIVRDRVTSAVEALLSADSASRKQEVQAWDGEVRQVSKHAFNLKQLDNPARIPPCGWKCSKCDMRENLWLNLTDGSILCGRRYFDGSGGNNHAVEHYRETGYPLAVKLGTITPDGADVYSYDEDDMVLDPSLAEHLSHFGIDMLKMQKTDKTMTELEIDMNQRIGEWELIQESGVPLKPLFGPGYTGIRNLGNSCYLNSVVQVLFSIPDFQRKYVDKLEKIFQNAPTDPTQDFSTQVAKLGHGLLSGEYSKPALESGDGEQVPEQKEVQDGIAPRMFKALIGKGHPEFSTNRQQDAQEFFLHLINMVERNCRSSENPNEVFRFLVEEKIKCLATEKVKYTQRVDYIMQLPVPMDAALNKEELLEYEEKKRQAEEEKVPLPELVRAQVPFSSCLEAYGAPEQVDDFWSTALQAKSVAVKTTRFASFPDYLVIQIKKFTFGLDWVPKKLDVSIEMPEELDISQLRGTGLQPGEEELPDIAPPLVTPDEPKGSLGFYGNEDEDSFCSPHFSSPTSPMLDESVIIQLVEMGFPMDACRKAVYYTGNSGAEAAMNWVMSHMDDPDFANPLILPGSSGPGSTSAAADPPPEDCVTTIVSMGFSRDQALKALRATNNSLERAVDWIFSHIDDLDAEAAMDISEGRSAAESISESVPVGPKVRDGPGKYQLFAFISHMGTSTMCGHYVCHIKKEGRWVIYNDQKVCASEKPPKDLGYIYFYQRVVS
UniProt B1AY13: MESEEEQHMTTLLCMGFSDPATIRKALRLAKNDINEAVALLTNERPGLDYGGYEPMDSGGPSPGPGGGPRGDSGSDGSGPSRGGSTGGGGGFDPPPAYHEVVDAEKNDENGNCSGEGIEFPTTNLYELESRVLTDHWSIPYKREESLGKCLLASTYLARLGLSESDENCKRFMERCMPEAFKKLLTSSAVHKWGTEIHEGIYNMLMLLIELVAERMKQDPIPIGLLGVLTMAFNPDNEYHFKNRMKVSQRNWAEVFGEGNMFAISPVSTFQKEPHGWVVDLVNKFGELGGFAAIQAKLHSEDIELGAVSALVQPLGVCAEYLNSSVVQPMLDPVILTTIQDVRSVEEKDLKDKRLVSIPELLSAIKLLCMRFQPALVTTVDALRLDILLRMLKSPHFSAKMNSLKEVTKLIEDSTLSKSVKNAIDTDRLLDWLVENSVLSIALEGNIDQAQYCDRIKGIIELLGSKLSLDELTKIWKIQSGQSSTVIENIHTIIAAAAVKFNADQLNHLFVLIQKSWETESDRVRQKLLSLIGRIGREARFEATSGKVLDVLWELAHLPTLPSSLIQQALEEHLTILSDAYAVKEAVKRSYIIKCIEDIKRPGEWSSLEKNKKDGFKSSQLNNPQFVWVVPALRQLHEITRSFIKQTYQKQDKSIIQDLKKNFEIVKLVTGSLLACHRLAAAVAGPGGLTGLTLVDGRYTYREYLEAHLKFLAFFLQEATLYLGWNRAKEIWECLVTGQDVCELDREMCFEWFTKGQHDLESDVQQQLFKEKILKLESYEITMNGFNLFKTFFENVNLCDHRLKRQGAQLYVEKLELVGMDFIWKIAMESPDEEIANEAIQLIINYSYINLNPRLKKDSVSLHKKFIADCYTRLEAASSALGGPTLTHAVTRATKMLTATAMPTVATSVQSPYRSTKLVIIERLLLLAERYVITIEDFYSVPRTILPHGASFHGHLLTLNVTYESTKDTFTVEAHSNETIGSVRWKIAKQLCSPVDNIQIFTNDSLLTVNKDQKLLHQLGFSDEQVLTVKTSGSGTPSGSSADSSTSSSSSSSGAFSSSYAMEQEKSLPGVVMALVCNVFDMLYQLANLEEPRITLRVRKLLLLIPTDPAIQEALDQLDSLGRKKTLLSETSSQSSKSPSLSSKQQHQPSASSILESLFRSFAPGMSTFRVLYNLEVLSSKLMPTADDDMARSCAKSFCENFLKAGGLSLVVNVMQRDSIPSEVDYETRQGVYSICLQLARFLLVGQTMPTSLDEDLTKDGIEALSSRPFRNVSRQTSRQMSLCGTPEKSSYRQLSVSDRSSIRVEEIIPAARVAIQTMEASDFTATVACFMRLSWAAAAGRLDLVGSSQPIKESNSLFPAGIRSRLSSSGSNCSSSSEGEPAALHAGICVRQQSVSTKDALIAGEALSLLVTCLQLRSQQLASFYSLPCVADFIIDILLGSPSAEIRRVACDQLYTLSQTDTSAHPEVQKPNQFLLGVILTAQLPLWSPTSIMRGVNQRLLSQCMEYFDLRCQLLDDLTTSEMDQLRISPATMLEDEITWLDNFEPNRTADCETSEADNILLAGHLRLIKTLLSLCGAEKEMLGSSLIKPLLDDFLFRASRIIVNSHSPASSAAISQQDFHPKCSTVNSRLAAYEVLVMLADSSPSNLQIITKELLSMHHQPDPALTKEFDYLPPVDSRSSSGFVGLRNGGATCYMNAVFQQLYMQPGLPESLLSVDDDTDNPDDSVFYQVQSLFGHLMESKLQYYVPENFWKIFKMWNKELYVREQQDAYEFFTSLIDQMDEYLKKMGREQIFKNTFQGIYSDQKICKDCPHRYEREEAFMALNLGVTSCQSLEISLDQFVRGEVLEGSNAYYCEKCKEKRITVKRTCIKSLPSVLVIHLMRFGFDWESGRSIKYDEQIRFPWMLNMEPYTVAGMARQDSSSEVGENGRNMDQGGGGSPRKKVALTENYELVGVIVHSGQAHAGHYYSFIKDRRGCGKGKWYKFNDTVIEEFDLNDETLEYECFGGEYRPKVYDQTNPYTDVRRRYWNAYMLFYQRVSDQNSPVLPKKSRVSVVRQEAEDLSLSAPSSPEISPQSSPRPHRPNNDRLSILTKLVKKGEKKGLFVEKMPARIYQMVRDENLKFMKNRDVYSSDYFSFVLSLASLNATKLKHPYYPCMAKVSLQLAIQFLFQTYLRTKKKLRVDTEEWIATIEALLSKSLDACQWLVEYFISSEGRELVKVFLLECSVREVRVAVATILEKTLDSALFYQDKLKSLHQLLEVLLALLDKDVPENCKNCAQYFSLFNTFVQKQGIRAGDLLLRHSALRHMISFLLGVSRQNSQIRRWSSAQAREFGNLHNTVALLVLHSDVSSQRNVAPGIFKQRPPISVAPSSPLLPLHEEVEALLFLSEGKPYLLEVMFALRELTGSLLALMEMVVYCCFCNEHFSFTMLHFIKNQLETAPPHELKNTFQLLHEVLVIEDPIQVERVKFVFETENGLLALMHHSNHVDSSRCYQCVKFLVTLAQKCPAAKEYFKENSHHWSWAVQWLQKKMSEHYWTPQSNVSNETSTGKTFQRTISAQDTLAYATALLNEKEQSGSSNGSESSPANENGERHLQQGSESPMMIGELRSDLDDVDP

target: biotin-tagged full-length mouse ISG15 propargylamide probe (mouse) (UniProt Q64339); assay: affinity purification with mass spectrometry

binding, binds:
USP14 (endogenous, mouse EL4 cells) (from UniProt Q9JMA1 1-493) (enzyme)
USP5 (endogenous, mouse EL4 cells) (from UniProt P56399 1-858) (enzyme)
USP24 (endogenous, mouse EL4 cells) (from UniProt B1AY13 1-2617) (enzyme)
